Results are given in words; binding and its absence hold for the method and conditions named. In cells and extracts the contact can be indirect. Binding calls can cover weak binding; strength is not graded here. For some assays here: Tags and fused reporters may be left off the sequences shown.
Assays:
[1] = molecular target: T1, HRDE-1 (C. elegans (endogenous in whole animals)) (UniProt Q09249); assay: co-IP
T1 sequence: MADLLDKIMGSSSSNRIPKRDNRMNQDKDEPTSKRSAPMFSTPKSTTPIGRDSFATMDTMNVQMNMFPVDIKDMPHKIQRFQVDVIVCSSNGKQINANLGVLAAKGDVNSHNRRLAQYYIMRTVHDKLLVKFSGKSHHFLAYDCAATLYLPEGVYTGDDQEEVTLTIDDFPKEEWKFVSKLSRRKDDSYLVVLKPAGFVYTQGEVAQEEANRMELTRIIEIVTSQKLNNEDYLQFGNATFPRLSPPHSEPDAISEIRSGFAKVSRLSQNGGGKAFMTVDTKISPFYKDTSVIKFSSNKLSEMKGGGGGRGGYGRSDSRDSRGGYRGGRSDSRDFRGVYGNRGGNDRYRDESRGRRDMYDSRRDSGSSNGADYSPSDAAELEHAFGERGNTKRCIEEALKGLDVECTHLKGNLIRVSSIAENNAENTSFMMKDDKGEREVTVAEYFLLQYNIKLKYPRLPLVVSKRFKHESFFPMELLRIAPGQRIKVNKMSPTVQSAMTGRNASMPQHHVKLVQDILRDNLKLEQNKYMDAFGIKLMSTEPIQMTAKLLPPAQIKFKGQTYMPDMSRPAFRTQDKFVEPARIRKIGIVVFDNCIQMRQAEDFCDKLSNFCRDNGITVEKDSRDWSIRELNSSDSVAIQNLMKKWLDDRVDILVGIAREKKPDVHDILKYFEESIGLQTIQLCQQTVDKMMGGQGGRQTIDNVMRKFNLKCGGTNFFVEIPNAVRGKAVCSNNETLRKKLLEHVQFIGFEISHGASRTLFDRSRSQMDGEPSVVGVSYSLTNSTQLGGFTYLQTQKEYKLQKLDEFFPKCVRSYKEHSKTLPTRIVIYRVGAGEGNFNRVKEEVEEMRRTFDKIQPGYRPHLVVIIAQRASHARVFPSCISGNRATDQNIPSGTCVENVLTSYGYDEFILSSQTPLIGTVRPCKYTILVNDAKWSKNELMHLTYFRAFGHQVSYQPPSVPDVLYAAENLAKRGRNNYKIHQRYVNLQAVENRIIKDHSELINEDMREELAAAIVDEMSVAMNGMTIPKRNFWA

[2] = molecular target: T2, Flag-tagged HRDE-1 (C. elegans) (UniProt Q09249); assay: co-IP
T2 sequence: T1 sequence

| binding [1] | binding [2] | Substance |
| --- | --- | --- |
| binds |  | Ollas-EMB-4 (C. elegans (endogenous in whole animals)) |
|  | binds | Aquarius/EMB-4 (C. elegans (endogenous in whole animals)) |
